Reference: the supplement of paper PMC12067093, “Discovery and optimisation of a covalent ligand for TRIM25 and its application to targeted protein ubiquitination” (Chemical Science, 2025)
Some of the results follow.

Amino acid sequences for entries named in this document (tags omitted). A change or cut given only in a name is not applied to a line headed by its entry.
UniProt P22234: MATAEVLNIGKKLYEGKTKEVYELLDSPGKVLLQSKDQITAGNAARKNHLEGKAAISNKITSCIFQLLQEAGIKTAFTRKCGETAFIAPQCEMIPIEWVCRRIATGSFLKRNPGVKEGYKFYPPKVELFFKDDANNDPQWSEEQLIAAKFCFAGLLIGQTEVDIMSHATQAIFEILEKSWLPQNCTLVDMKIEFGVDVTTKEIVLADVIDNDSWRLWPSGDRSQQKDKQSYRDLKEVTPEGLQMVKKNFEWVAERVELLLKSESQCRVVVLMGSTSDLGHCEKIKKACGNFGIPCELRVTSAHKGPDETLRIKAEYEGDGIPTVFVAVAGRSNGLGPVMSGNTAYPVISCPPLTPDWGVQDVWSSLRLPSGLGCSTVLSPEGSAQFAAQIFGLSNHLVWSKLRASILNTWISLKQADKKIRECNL
UniProt Q8N573: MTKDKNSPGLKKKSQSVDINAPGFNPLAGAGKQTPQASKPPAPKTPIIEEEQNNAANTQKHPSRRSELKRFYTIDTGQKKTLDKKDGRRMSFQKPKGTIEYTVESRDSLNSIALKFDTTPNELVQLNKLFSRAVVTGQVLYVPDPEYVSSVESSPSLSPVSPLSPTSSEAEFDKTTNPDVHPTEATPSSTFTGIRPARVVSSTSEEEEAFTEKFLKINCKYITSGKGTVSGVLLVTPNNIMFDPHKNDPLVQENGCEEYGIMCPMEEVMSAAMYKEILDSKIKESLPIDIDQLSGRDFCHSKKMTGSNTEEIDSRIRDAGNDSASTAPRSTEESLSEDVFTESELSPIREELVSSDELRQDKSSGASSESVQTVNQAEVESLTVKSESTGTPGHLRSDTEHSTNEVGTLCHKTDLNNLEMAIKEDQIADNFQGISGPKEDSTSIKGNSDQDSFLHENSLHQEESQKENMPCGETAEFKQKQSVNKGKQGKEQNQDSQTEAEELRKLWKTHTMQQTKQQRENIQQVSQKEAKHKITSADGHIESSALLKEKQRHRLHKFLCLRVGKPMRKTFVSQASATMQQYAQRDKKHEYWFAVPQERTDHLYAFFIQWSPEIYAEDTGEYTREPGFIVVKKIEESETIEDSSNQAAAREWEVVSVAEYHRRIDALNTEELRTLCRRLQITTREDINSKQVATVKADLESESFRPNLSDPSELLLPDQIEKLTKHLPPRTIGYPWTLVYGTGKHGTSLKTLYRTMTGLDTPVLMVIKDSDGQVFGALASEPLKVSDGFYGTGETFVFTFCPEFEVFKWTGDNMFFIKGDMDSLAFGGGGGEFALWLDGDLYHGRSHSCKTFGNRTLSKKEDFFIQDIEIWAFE
UniProt Q9UNF0: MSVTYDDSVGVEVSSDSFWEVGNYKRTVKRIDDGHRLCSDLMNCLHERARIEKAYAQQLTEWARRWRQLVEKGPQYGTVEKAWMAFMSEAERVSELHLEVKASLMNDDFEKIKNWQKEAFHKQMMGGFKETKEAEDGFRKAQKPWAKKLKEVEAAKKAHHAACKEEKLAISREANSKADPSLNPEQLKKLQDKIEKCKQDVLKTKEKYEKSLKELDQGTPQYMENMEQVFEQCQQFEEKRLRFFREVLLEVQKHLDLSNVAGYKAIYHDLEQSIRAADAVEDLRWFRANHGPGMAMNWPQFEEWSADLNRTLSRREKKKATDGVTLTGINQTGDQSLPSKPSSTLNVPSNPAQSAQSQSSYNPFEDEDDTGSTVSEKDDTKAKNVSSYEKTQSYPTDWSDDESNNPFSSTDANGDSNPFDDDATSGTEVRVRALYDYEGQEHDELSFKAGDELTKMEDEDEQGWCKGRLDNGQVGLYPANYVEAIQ
UniProt P51003: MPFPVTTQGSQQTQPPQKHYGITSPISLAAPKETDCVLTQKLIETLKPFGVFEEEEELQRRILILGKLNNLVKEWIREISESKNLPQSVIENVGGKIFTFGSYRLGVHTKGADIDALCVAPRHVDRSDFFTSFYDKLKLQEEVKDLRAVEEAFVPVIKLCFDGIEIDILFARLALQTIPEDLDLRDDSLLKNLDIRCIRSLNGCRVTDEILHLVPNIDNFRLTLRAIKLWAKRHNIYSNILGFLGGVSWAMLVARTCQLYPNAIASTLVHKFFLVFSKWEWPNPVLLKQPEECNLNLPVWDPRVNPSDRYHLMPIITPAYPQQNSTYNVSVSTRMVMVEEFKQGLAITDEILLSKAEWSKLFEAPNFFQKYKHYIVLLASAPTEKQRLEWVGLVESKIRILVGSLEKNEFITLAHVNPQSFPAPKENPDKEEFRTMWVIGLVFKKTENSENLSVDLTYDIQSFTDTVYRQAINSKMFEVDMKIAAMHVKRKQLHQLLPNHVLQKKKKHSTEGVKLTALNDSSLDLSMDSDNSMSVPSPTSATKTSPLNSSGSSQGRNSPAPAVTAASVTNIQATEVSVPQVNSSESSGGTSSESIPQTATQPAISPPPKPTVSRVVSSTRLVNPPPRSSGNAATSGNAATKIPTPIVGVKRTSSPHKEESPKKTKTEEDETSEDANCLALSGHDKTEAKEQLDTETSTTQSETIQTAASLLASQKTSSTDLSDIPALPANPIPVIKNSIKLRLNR
UniProt O43913: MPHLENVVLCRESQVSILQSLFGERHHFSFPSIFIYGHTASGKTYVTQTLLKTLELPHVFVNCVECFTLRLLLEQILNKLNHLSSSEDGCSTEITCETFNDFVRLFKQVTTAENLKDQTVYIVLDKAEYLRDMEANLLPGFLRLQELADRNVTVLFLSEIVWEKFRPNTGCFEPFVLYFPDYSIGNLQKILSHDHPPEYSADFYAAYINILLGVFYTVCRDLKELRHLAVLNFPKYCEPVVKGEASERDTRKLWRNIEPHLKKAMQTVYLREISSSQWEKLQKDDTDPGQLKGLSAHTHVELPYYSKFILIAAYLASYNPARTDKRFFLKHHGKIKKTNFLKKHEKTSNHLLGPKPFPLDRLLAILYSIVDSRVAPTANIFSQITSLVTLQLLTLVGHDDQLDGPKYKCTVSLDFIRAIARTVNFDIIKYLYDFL
UniProt Q8N6M0: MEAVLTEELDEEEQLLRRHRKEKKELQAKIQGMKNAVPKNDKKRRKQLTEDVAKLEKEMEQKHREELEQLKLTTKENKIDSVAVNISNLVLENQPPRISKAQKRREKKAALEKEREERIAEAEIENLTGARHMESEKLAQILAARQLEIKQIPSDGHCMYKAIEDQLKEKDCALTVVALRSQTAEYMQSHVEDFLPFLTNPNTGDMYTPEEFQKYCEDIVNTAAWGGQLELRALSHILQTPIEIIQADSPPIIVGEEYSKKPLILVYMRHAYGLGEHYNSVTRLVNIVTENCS
UniProt Q99497, whole entry, looked up: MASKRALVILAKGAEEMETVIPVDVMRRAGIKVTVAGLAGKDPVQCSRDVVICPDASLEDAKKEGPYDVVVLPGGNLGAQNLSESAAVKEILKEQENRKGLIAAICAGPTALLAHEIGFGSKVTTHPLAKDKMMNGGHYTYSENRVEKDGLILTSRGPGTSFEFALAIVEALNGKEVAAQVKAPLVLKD
UniProt Q9H0X9: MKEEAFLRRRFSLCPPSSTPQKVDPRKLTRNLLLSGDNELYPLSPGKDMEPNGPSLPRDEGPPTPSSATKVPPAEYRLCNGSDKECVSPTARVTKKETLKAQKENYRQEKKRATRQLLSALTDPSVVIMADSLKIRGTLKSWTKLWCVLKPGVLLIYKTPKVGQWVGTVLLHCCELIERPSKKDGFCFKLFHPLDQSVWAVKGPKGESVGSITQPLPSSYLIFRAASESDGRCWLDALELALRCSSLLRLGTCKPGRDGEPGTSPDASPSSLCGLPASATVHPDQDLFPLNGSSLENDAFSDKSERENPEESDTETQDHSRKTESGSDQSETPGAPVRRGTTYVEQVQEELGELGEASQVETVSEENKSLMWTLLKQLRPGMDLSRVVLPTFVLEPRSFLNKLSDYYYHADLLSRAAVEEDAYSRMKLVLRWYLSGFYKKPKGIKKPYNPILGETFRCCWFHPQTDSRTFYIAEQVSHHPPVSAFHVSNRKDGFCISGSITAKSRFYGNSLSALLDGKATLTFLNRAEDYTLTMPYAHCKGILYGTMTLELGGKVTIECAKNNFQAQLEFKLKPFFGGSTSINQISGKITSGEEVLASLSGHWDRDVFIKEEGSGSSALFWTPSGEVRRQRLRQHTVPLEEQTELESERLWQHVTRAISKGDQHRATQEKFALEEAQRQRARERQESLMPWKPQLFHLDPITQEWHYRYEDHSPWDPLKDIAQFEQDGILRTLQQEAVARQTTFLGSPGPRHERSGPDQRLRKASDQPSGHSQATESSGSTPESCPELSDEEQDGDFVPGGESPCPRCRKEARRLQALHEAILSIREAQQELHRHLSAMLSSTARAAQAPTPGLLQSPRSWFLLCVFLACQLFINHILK
UniProt Q32P28: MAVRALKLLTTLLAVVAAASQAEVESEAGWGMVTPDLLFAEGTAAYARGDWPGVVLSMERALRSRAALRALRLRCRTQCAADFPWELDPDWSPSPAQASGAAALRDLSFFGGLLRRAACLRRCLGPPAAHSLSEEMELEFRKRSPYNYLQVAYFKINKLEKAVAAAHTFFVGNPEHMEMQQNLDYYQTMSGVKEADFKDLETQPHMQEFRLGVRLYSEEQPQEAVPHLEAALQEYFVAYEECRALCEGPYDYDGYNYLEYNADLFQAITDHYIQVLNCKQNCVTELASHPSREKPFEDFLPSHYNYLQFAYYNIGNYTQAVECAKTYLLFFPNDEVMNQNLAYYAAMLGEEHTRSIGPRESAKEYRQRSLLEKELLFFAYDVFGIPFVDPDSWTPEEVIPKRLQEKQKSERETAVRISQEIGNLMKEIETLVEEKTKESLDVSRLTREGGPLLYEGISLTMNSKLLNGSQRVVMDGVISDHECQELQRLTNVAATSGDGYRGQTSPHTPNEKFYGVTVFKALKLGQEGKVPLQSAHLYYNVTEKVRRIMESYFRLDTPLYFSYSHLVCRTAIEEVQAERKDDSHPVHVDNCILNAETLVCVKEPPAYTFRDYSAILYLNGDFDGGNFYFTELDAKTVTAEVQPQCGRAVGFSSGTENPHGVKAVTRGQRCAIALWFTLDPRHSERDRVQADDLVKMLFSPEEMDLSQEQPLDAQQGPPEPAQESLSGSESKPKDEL
UniProt P07237: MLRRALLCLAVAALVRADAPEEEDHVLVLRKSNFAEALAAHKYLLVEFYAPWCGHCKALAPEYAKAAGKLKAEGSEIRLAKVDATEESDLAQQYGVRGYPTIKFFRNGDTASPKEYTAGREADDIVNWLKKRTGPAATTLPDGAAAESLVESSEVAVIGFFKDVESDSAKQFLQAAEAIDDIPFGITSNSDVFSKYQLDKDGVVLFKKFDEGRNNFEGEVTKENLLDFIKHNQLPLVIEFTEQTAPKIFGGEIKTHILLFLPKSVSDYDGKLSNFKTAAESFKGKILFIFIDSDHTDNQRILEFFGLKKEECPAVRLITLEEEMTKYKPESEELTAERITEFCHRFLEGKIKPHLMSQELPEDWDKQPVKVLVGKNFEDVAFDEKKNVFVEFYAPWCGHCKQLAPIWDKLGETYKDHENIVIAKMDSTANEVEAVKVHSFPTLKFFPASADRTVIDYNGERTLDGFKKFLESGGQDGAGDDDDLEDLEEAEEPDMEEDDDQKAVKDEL
UniProt Q96SU4: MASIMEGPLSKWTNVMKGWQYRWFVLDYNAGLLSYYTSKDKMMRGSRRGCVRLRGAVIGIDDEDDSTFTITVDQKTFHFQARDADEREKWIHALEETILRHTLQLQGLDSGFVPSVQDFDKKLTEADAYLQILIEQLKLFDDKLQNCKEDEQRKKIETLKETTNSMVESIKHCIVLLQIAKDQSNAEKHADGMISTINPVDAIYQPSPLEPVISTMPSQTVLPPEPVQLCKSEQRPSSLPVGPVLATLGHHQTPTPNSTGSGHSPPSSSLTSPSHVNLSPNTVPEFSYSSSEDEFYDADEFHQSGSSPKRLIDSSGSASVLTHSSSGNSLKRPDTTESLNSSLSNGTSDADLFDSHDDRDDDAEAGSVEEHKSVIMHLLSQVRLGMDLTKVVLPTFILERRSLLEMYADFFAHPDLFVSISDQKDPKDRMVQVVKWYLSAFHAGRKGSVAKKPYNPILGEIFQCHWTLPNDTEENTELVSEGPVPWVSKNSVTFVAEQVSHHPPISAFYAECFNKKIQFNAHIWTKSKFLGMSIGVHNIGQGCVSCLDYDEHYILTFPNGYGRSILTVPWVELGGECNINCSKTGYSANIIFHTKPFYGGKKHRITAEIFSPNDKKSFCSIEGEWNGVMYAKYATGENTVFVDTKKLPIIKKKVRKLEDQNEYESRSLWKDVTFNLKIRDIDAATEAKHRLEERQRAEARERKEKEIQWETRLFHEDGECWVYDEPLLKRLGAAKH

Compound: Cc1cc(ccc1-c1ccccc1)C(=O)N1CCCN(CC1)C(=O)CCl [compound 10]
Assay: probe-labelled cysteine peptide fold change vs DMSO (competition) (log2 fold change); higher = less target engagement (more negative = stronger competition)
Conditions: THP-1, incubation time: 4 h
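Note: competitive profiling in live THP-1 cells: cysteine peptides tagged with an iodoacetamide desthiobiotin (IA-DTB) probe, intensity after compound treatment relative to DMSO-treated cells.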

Target	probe-labelled cysteine peptide fold change (10 µM)	probe-labelled cysteine peptide fold change (50 µM)
PAICS_P22234_100_CGETAFIAPQCEMIPIEWVCR (UniProt P22234)	0.0469	-0.0381
OSBPL1A_Q9BXW6_520_DCGGGDALSNGIK (UniProt Q9BXW6)	-0.148	-0.0947
PARP10_Q53GL7_50_LGCGGVLTFREPADAER (UniProt Q53GL7)	-0.164	-0.499
OSGEP_Q9NPF4_160_IFGETIDIAVGNCLDR (UniProt Q9NPF4)	0.0282	0.211
PAG1_Q9NWQ8_179_DSSSQENMVEDCLYETVK (UniProt Q9NWQ8)	-0.312	-0.763
OXR1_Q8N573_471_ENMPCGETAEFK (UniProt Q8N573)	-0.0436	-0.217
PACSIN2_Q9UNF0_44_LCSDLMNCLHER (UniProt Q9UNF0)	-0.0938	-0.115
OSBPL1A_Q9BXW6_746_PCGLFGK (UniProt Q9BXW6)	0.0257	0.329
PAICS_P22234_100_KCGETAFIAPQCEMIPIEWVCR (UniProt P22234)	0.182	-0.192
PAPOLA_P51003_118_GADIDALCVAPR (UniProt P51003)	-0.163	0.0543
PAICS_P22234_81_CGETAFIAPQCEMIPIEWVCR (UniProt P22234)	0.0898	-0.252
PAPOLA_P51003_677_TKTEEDETSEDANCLALSGHDK (UniProt P51003)	-0.0797	-0.359
OXR1_Q8N573-2_50_FEDYLREPAQGDLGCGSPPHRPPAPSSPEGPDTGQK (UniProt Q8N573)	0.0174	-0.41
ORC5_O43913_409_CTVSLDFIR (UniProt O43913)	0.0915	0.28
OSGEPL1_Q9H4B0_390_CPLGVDISK (UniProt Q9H4B0)	-0.246	-0.4
OSBPL1A_Q9BXW6_710+711_GTITLELLEHNEAYTWTNPTCCVHNIIVGK (UniProt Q9BXW6)	-0.32	-0.285
OTUD6B_Q8N6M0_158_QIPSDGHCMYK (UniProt Q8N6M0)	-0.0185	-0.106
PARK7_Q99497_46_DPVQCSR (UniProt Q99497)	-0.268	0.22
PAICS_P22234_91_CGETAFIAPQCEMIPIEWVCR (UniProt P22234)	0.0818	0.171
PARP14_Q460N5_849_AAGPELQADCDQIVK (UniProt Q460N5)	-0.388	-0.321
PAPSS1_O43252_290+295_EREYLQCLHFDCLLDGGVINLSVPIVLTATHEDK (UniProt O43252)	0.105	-0.159
OSBPL5_Q9H0X9_14_FSLCPPSSTPQK (UniProt Q9H0X9)	-0.292	0.0347
PARP1_P09874_429_ASLCISTKK (UniProt P09874)	-0.0318	-0.642
OPLAH_O14841_253_YVQGFCR (UniProt O14841)	0.036	-0.112
P3H1_Q32P28_645_TVTAEVQPQCGR (UniProt Q32P28)	-0.116	0.122
P4HB_P07237_53_YLLVEFYAPWCGHCK (UniProt P07237)	-1.15	-1.6
OSBPL9_Q96SU4_720_LFHEDGECWVYDEPLLK (UniProt Q96SU4)	-0.239	-0.336
P4HB_P07237_312_ILEFFGLKKEECPAVR (UniProt P07237)	-0.209	-1.04
PARP2_Q9UGN5_288_KIEDCIR (UniProt Q9UGN5)	0.128	-0.0817

Fetched one by one from above (2):
Target	probe-labelled cysteine peptide fold change (10 µM)	probe-labelled cysteine peptide fold change (50 µM)
PAPSS1_O43252_290+295_EREYLQCLHFDCLLDGGVINLSVPIVLTATHEDK (UniProt O43252)	0.105	-0.159
PAICS_P22234_81_CGETAFIAPQCEMIPIEWVCR (UniProt P22234)	0.0898	-0.252
